Values from PubChem BioAssay AID1671195 (Yale University, 2021).
In all, the deposit lists about 22,000 reagents; this is a part drawn at random. About 1,510 of all reagents (6.9%) count as active. 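Active includes knockdowns raising or lowering LDL uptake; positive z-scores mean more uptake, negative mean less.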 Unmarked entries are inactive. Reagents against one gene are numbered here.

- Aim: 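Genes whose knockdown alters LDL uptake in liver cancer cells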 (primary screen)
- Cell system: human Huh7 hepatoma cells
- Reagent: siRNA pool against human genes, 18 nM
- Duration: about 2 to 2.5 days of knockdown, then 8 h LDL uptake
- Conditions: DiI-labelled LDL at 30 µg/ml for 8 h, in lipoprotein-deficient serum medium
- Measured: 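Fluorescent LDL signal imaged in cells, scaled to the plate median, robust z-score for each replicate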
- Scale: robust z-score: higher = more LDL uptake after knockdown
- Rule for the call: 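Active when two or more replicates show a robust z-score above 2 or below -2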

| target | reagent no. | robust z-score, replicate 1 | robust z-score, replicate 2 | robust z-score, replicate 3 |
| --- | --- | --- | --- | --- |
| CELA2A (GeneID 63036) | 1 | -0.841 | 0.861 | -0.192 |
| DEFB112 (GeneID 245915) | 1 | 1.02 | 1.11 | 0.822 |
| ZNF281 (GeneID 23528) | 1 | -0.611 | -0.589 | -0.289 |
| ENTPD4 (GeneID 9583) | 1 | 0.636 | 0.504 | -0.182 |
| PPM1D (GeneID 8493) | 1 | 0.63 | 0.0726 | 0.114 |
| LOC402196 (retired record) (GeneID 402196) | 1 | -0.296 | -0.742 | 0.36 |
| RPL5P29 (GeneID 390158) | 1 | 0.267 | 0.564 | 0.331 |
| DELEC1 (GeneID 50514) | 1 | -0.652 | -0.00211 | -1.85 |
| HHLA1 (GeneID 10086) | 1 | -0.375 | -0.953 | 0.391 |
| TAAR9 (GeneID 134860) | 1 | 1.62 | 1.23 | 2.36 |
| SLC22A12 (GeneID 116085) | 1 | -0.635 | -0.524 | -0.167 |
| IL12B (GeneID 3593) | 1 | -1.25 | -0.357 | -0.891 |
| BLOC1S5 (GeneID 63915) | 1 | 1.61 | 0.847 | 1.74 |
| GDE1 (GeneID 51573) | 1 | 0.887 | -0.424 | 0.363 |
| KCTD11 (GeneID 147040) | 1 | 0.154 | 0.474 | 0.771 |
| KDM5A (GeneID 5927) | 1 | -0.208 | -0.242 | -0.00594 |
| CENPH (GeneID 64946) | 1 | 0.125 | -0.542 | -0.771 |
| LINC00471 (GeneID 151477) | 1 | 1.22 | 0.631 | 0.467 |
| TOR2A (GeneID 27433) | 1 | 0.0162 | -1.66 | 0.0549 |
| GLOD5 (GeneID 392465) | 1 | -0.569 | 0.726 | 0.891 |
| DYNC2LI1 (GeneID 51626) | 1 | -2.06 | -1.84 | -1.05 |
| HOATZ (GeneID 399949) | 1 | -0.963 | -1.35 | -1.55 |
| PSTPIP2 (GeneID 9050) | 1 | -1.79 | -0.947 | -2.32 |
| DNAI3 (GeneID 126820) | 1 | 0.508 | 0.746 | 0.0172 |
| GRAMD1A (GeneID 57655) | 1 | 0.471 | -0.629 | -0.202 |
| ATP8B1 (GeneID 5205) | 1 | 0.465 | 0.556 | 0.368 |
| ANKRD54 (GeneID 129138) | 1 | -1.86 | -1.8 | -0.876 |
| KLRC3 (GeneID 3823) | 1 | -0.845 | -1.25 | -0.797 |
| LOC389323 (retired record) (GeneID 389323) | 1 | -0.0582 | -0.287 | 0.000806 |
| MRPL13 (GeneID 28998) | 1 | -0.283 | 2.6 | 1.12 |
| MANF (GeneID 7873) | 1 | -0.971 | -0.797 | -2.04 |
| HS1BP3 (GeneID 64342) | 1 | -0.519 | -0.81 | -0.214 |
| TBX1 (GeneID 6899) | 1 | 0.616 | 1.59 | 1.2 |
| PLEKHA7 (GeneID 144100) | 1 | 0.66 | 0.404 | 0.385 |
| PLEKHA7 (GeneID 144100) | 2 | -1.7 | -1.33 | -1.7 |
| PWWP3B (GeneID 139221) | 1 | 0.428 | 1.81 | 2.21 |
| PRR5 (GeneID 55615) | 1 | 1.08 | -0.35 | 0.728 |
| OR10P1 (GeneID 121130) | 1 | -1.13 | -0.519 | -0.858 |
| CIAO3 (GeneID 64428) | 1 | -0.334 | -1.05 | -0.261 |
| WASHC5 (GeneID 9897) | 1 | -0.607 | 0.122 | -1.39 |
| LOC441845 (retired record) (GeneID 441845) | 1 | 0.787 | 1.26 | 1.49 |
| PDS5B (GeneID 23047) | 1 | 0.185 | 1.82 | 0.433 |
| LOC392089 (retired record) (GeneID 392089) | 1 | -1.3 | -1.32 | -1.63 |
| TUT1 (GeneID 64852) | 1 | 0.783 | 0.845 | 0.719 |
| SLC25A37 (GeneID 51312) | 1 | 2.58 | 0.425 | -1.98 |
| WDR55 (GeneID 54853) | 1 | 0.231 | 0.898 | -0.728 |

In a second layout: results already given.
HOATZ (GeneID 399949)
- robust z-score, replicate 1: -0.963
- robust z-score, replicate 2: -1.35
- robust z-score, replicate 3: -1.55

PSTPIP2 (GeneID 9050)
- robust z-score, replicate 1: -1.79
- robust z-score, replicate 2: -0.947
- robust z-score, replicate 3: -2.32

DNAI3 (GeneID 126820)
- robust z-score, replicate 1: 0.508
- robust z-score, replicate 2: 0.746
- robust z-score, replicate 3: 0.0172

GRAMD1A (GeneID 57655)
- robust z-score, replicate 1: 0.471
- robust z-score, replicate 2: -0.629
- robust z-score, replicate 3: -0.202

ATP8B1 (GeneID 5205)
- robust z-score, replicate 1: 0.465
- robust z-score, replicate 2: 0.556
- robust z-score, replicate 3: 0.368

ANKRD54 (GeneID 129138)
- robust z-score, replicate 1: -1.86
- robust z-score, replicate 2: -1.8
- robust z-score, replicate 3: -0.876
